According to article PMC4070914:
These are yes or no findings as the source states them, for the method shown. Some binding calls cover weakened binding; strength is not graded here.

Legend:
[1] = target: FtsHi2 (Arabidopsis thaliana) (UniProt A8MPR5); assay: two-hybrid; Clontech system; baits in pGBKT7, preys in pGADT7; growth on -Ade/-His/-Leu/-Trp medium
[2] = target: T1, FtsHi4 (Arabidopsis thaliana) (UniProt F4KF14); assay: as above
T1 sequence: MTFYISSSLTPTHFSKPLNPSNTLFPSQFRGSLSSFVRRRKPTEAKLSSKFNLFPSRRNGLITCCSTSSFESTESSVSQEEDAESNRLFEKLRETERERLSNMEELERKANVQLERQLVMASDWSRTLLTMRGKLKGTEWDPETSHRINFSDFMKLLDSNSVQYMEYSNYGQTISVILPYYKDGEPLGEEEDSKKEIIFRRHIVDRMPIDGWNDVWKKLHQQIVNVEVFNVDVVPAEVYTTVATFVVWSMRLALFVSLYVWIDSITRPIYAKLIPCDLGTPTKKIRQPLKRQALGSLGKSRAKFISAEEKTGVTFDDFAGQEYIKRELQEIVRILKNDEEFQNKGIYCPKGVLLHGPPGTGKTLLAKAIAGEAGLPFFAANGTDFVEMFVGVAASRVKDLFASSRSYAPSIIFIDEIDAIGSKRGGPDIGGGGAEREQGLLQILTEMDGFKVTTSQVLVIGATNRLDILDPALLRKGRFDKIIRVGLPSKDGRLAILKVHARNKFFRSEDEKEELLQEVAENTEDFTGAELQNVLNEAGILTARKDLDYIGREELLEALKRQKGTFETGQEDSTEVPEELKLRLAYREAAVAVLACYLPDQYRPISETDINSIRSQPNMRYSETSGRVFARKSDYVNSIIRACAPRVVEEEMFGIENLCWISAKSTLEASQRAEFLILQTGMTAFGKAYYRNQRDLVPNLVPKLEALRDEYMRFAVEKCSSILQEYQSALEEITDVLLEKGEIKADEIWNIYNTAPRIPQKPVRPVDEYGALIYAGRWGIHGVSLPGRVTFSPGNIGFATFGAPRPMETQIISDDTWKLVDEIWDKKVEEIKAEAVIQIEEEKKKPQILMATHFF

B1: FtsHi2 (protein, UniProt A8MPR5 1-876)
chain: MACRFPLHSSSPSQFLSPENRQRLPRNYPSISCQNNSATNVVHEDGDDNDKAKTNQVNLLAIPITLTIISASLAKPSFAAAKVTERKRTQKKPQEALTLEQLKAWSKDLPVVSNRIPYTDILSLKAEGKLKHVIKPPNLSLRQKAEPVLVVLEDSRVLRTVLPSLEGNKRFWEQWDELGIDVQCVNAYTPPVKRPPVPSPYLGFLWKVPAYMLTWVKPKKESKRAAELKRMREDFKRQRKEEIETMKEERVMMEKTMKAQKKQQERKKRKAVRKKKYEESLREARKNYRDMADMWARLAQDPNVATALGLVFFYIFYRVVVLNYRKQKKDYEDRLKIEKAEADERKKMRELEREMEGIEEEDEEVEEGTGEKNPYLQMAMQFMKSGARVRRASNKRLPEYLERGVDVKFTDVAGLGKIRLELEEIVKFFTHGEMYRRRGVKIPGGILLCGPPGVGKTLLAKAVAGEAGVNFFSISASQFVEIYVGVGASRVRALYQEARENAPSVVFIDELDAVGRERGLIKGSGGQERDATLNQLLVSLDGFEGRGEVITIASTNRPDILDPALVRPGRFDRKIFIPKPGLIGRMEILQVHARKKPMAEDLDYMAVASMTDGMVGAELANIVEIAAINMMRDGRTELTTDDLLQAAQIEERGMLDRKDRSLETWRQVAINEAAMAVVAVNFPDMKNIEFLTINPRAGRELGYVRVKMDHIKFKEGMLSRQSILDHITVQLAPRAADELWYGEDQLSTIWAETSDNARSAARSLVLGGLSDKHHGLNNFWVADRINDIDVEALRILNMCYERAKEILGRNRTLMDEVVEKLVQKKSLTKQEFFTLVELYGSSKPMPPSILELRKIKRLELEEMVLKLDMTTARNSS
[1]
  binding: binds
[2]
  binding: binds

B2: FtsHi4 (protein, UniProt F4KF14 1-855)
chain: T1 sequence
[2]
  binding: binds
